Test results: the supplement of paper PMC12889115
This is one part of the list. These are raw signals, not scaled to a control.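 First-pass screen: polymyxin B was added at a level that permeabilizes the Salmonella outer membrane while sparing the inner membrane. DMSO wells, with and without polymyxin B, defined maximum growth. Because plates differed from one another, each plate's data were ranked separately and the compounds with the lowest OD600 were carried forward as hits.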

System: Salmonella enterica serovar Typhimurium SL1344
Test: bacterial growth OD600 after 18 h with compound and polymyxin B; higher = more bacterial growth (less inhibition)
Conditions: 50 µM, Mueller-Hinton broth

Row | Structure (SMILES) | bacterial growth OD600 (polymyxin B 0.75 µg/mL) | bacterial growth OD600 (polymyxin B 1 µg/mL)
1 | O=C(CCC1(Cc2ccc(Cl)cc2)CCC(=O)N1)NCCc1ccc(F)cc1 (stereo not given) | 0.943 | –
2 | CC(CCn1cccn1)NC(=O)c1ccc(OC2CCN(C(=O)C3CC3)CC2)cc1 (stereo not given) | – | 0.833
3 | O=C(COc1ccc(N2CCN(c3ccccn3)CC2)nn1)NCCC(c1ccccc1)c1ccco1 (stereo not given) | 0.515 | –
4 | COc1cccc(CC(C2CCN(C(=O)c3ccccc3OC)CC2)N(C)C(=O)c2ccsc2)c1 (stereo not given) | 0.641 | –
5 | CCn1cc(CN2CCOC(Cc3cccc(C(F)(F)F)c3)C2)cn1 (stereo not given) | 0.803 | –
6 | COC(=O)c1cccc(C(=O)N2CCC(C(Cc3ccccc3)N(C)C(=O)Cn3cccn3)CC2)c1 (stereo not given) | 0.976 | –
7 | COc1ccc(CNC(=O)CCC2(Cc3ccc(Cl)cc3)CCC(=O)N2)cc1OC (stereo not given) | 0.837 | –
8 | Cc1cc(C)n(CC(=O)N2CCOc3c(cc(-c4csc5ccccc45)cc3OCc3ccccn3)C2)n1 | 0.079 | –
9 | O=C1CC(NC2CCCCC2)CN1CCc1ccccc1 (stereo not given) | – | 1.12
10 | Cc1cc(C)n(CCC(=O)NC2CCCc3nc(-c4cccnc4)ncc32)n1 (stereo not given) | 0.849 | –
11 | CCC(=O)N[C@@H]1c2ccccc2C2(CCN(C(=O)c3cccc(OC)c3OC)CC2)[C@H]1OCCOC | 0.714 | –
12 | Cc1ccc(Oc2ncccc2CNC(=O)CN(C)C)c(F)c1F | – | 1.02
13 | CC(=O)N1CCC(N2CCCC(CCc3ccc(F)cc3F)C2)CC1 (stereo not given) | 0.836 | –
14 | COCCO[C@H]1[C@H](NC(=O)C(C)C)c2ccccc2C12CCN(Cc1nc3ccccc3s1)CC2 | 0.632 | –
15 | COCc1c(C(=O)N(C)CC2COCCO2)cnn1-c1nccc(-c2cc(C)sc2C)n1 (stereo not given) | 0.866 | –
16 | CCN(CC)C1CCN(C(=O)CN2Cc3cc(Cl)ccc3OC(C)C2)C1 (stereo not given) | 0.846 | –
17 | O=C(c1ccc(N2CCC(NCCc3ccc(C(F)(F)F)cc3)CC2)cc1)N1CCOCC1 | 0.005 | –
18 | Cc1ccc(OCc2cc(C(=O)N3CCCC(CN4CCOCC4)C3)no2)cn1 (stereo not given) | – | 1.05
19 | CN(C)c1ncc(CN2CCC(CCC(=O)NCc3cccnc3)CC2)s1 | – | 0.926
20 | COc1ccccc1OCC(=O)N1CCc2c(cnc(C)c2CNC(=O)C(OC)c2ccccc2)C1 (stereo not given) | 0.714 | –
21 | C[C@@H]1CN(C2(C(=O)N3CCc4sccc4C3)Cc3ccccc3C2)C[C@H](C)O1 | 0.276 | –
22 | NC(=O)CC1CCCCN1c1ccc(-c2nc(-c3ccccc3F)no2)cn1 (stereo not given) | – | 0.397
23 | COc1ccc(C(=O)N2CCc3onc(-c4cccc(F)c4)c3C2)c(OC)c1 | 0.461 | –
24 | COC(=O)c1cc(CNC(=O)[C@@H]2C[C@@H]3C=C[C@H]2C3)cc(NS(=O)(=O)c2ccc(F)cc2)c1 | 0.769 | –
25 | O=C(Cn1nnnc1CN1CCCCCC1)NCCc1c[nH]c2ccccc12 | 0.78 | –
26 | Cc1cc(-n2cccn2)ccc1CNC1CCCc2c1cnn2-c1ccccn1 (stereo not given) | 0.766 | –
27 | CCOC(=O)C1(Cc2cccc(OC)c2)CCN(Cc2cccn2-c2nccs2)CC1 | – | 0.767
28 | COc1cc(OC)cc(C(=O)NCC2CCCN(C(=O)c3cc(C)on3)C2)c1 (stereo not given) | – | 0.935
29 | CC(C)CCCC1CN(C(=O)CCN2CCCO2)CCO1 (stereo not given) | – | 0.943
30 | COc1cc(CN2CCCC(CO)(Cc3cccc(Cl)c3)C2)cc(Cl)c1OC (stereo not given) | – | 0.001

A draw from above in order of molecular weight, ascending.
Row | Structure (SMILES) | bacterial growth OD600 (polymyxin B 0.75 µg/mL) | bacterial growth OD600 (polymyxin B 1 µg/mL)
26 | Cc1cc(-n2cccn2)ccc1CNC1CCCc2c1cnn2-c1ccccn1 (stereo not given) | 0.766 | –
19 | CN(C)c1ncc(CN2CCC(CCC(=O)NCc3cccnc3)CC2)s1 | – | 0.926
11 | CCC(=O)N[C@@H]1c2ccccc2C2(CCN(C(=O)c3cccc(OC)c3OC)CC2)[C@H]1OCCOC | 0.714 | –
